Results are given in words; binding and its absence hold for the method and conditions named. In cells and extracts the contact can be indirect. These calls come from enrichment with a bait or labelling near it, and not all partners need be listed.
B1: p120-catenin (Ctnnd1) (protein, UniProt P30999 1-938)
chain: MDDSEVESTASILASVKEQEAQFEKLTRALEEERRHVSAQLERVRVSPQDANSLMANGTLTRRHQNGRFVGDADLERQKFSDLKLNGPQDHNHLLYSTIPRMQEPGQIVETYTEEDPEGAMSVVSVETTDDGTTRRTETTVKKVVKTMTTRTVQPVPMGPDGLPVDASAVSNNYIQTLGRDFRKNGNGGPGPYVGQAGTATLPRNFHYPPDGYGRHYEDGYPGGSDNYGSLSRVTRIEERYRPSMEGYRAPSRQDVYGPQPQVRVGGSSVDLHRFHPEPYGLEDDQRSMGYDDLDYGMMSDYGTARRTGTPSDPRRRLRSYEDMIGEEVPPDQYYWAPLAQHERGSLASLDSLRKGMPPPSNWRQPELPEVIAMLGFRLDAVKSNAAAYLQHLCYRNDKVKTDVRKLKGIPILVGLLDHPKKEVHLGACGALKNISFGRDQDNKIAIKNCDGVPALVRLLRKARDMDLTEVITGTLWNLSSHDSIKMEIVDHALHALTDEVIIPHSGWEREPNEDCKPRHIEWESVLTNTAGCLRNVSSERSEARRKLRECDGLVDALIFIVQAEIGQKDSDSKLVENCVCLLRNLSYQVHREIPQAERYQEALPTVANSTGPHAASCFGAKKGKDEWFSRGKKPTEDPANDTVDFPKRTSPARGYELLFQPEVVRIYISLLKESKTPAILEASAGAIQNLCAGRWTYGRYIRSALRQEKALSAIAELLTSEHERVVKAASGALRNLAVDARNKELIGKHAIPNLVKNLPGGQQNSSWNFSEDTVVSILNTINEVIAENLEAAKKLRETQGIEKLVLINKSGNRSEKEVRAAALVLQTIWGYKELRKPLEKEGWKKSDFQVNLNNASRSQSSHSYDDSTLPLIDRNQKSDKKPDREEIPMSNMGSNTKSLDNNYSTLNERGDHNRTLDRSGDLGDMEPLKGAPLMQKI
B2: tensin-4 (protein, UniProt Q8BZ33 15-696)
chain: TPCEESRMALHPTPSPGLPALCPYYTTESWGTQPLMAPTLRKGSSDRLQQAQQAEARAHCLLQGPGEQASGASQDLESCIDFSLEALNQMILEIDPTFQLLPSGTAGPQAESTNSIMSRNKKEEPEALDIKYIEVTSTRSRYLDGPQRCSSPCATPPFGSPRSGSLFLSRDIPRETRSSSNESLIFSGNQGRGPSPLTPSSLSNAIPCRESRTSGSPLATPPGWEKGLRAPQRGSRVSILSASPVSDVSYVFGSNQSLPHSSLSSYPSSSRSLGSPASSSSSLHSLDRGSQCGRPSDAQAPSNPILGMGQPQAVQSTPVAKEQASSCPASVTNSMADIPIVLINGSPEPQSPPAQRTPGHQDSVQSRVTSPSHLCQAIKSPSKTLPDVPLPASPDGPAKDMQPTMKFVMDTSKYWFKPSITREQAINLLRTEKPGAFVIRDSSSYRGSFGLALKVQETSASAPNRPGEDSSDLIRHFLIESSAKGVHLKGADEEPYFGSLSSFVCQHSIMALALPCKLTIPQKELGGAEPASDSPTHGQTSCLKISAGCHTLYLSSVSVETLSGALAVQKAISVTLERDVLPTPTVVHFKVTEQGITLTDVQRKVFFRRHYPLSALRFCGMDPEQRKWQKYCKPSRIFGFVAKSQTEPQENVCHLFAEYDAVQPASQVISLVTALLQDTERM
B3: ARHGEF7 (β-PIX) (protein, UniProt Q9ES28 1-862)
chain: MNSAEQTVTWLITLGVLESPKKTISDPEVFLQASLKDGVVLCRLLERLLPGTIEKVYPEPRNESECLSNIREFLRACGASLRLETFDANDLYQGQNFNKVLSSLVTLNKVTADIGLGSDSVCARPSSHRIKSFDSLGSQSSHSRTSKLLQSQYRSLDMTDNTNSQLVVRAKFNFQQTNEDELSFSKGDVIHVTRVEEGGWWEGTHNGRTGWFPSNYVREIKPSEKPVSPKSGTLKSPPKGFDTTAINKSYYNVVLQNILETEHEYSKELQSVLSTYLRPLQTSDKLSSANTSYLMGNLEEISSFQQVLVQSLEECTKSPEAQQRVGGCFLSLMPQMRTLYLAYCANHPSAVSVLTEHSEDLGEFMETKGASSPGILVLTTGLSKPFMRLDKYPTLLKELERHMEDYHPDRQDIQKSMTAFKNLSAQCQEVRKRKELELQILTEPIRSWEGDDIKTLGSVTYMSQVTIQCAGSEEKNERYLLLFPNLLLMLSASPRMSGFIYQGKLPTTGMTITKLEDSENHRNAFEISGSMIERILVSCTSQQDLHEWVEHLQKQTKVTSVSNPTIKPHSVPSHTLPSHPLTPSSKHADSKPVALTPAYHTLPHPSHHGTPHTTISWGPLEPPKTPKPWSLSCLRPAPPLRPSAALCYKEDLSKSPKTMKKLLPKRKPERKPSDEEFAVRKSTAALEEDAQILKVIEAYCTSAKTRQTLNSTWQGTDLMHNHVLADDDQSSLDSLGRRSSLSRLEPSDLSEDSEYDSIWTAHSYRMGSASRSRKESAPQVLLPEEEKIIVEETKSNGQTVIEEKSLVDTVYALKDEVQELRQDNKKMKKSLEEEQRARKDLEKLVRKVLKNMNDPAWDETNL

The chains behind the UniProt entries cited, without tags or fusion partners. Residues count along the entry.
UniProt Q9EQT3: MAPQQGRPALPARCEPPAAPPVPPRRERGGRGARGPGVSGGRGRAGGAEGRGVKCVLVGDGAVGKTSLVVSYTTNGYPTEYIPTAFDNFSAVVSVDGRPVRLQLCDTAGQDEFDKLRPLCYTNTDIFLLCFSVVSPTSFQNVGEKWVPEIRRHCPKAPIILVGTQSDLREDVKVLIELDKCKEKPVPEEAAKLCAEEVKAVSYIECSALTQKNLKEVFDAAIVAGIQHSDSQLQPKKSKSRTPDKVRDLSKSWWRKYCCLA
UniProt Q8CIN4: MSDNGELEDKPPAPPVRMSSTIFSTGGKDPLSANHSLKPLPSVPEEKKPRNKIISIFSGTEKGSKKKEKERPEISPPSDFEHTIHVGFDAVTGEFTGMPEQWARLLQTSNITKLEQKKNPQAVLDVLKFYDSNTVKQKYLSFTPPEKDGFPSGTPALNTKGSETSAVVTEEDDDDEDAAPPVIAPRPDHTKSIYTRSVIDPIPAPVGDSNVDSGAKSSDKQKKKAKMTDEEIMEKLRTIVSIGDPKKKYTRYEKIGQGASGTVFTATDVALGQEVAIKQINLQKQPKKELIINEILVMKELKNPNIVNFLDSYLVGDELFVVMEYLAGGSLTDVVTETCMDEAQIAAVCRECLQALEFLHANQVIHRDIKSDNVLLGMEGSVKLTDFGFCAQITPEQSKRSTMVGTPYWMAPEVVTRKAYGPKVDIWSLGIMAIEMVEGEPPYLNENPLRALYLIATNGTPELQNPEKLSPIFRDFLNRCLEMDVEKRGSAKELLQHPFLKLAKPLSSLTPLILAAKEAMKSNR
UniProt P09055, residues 21-798: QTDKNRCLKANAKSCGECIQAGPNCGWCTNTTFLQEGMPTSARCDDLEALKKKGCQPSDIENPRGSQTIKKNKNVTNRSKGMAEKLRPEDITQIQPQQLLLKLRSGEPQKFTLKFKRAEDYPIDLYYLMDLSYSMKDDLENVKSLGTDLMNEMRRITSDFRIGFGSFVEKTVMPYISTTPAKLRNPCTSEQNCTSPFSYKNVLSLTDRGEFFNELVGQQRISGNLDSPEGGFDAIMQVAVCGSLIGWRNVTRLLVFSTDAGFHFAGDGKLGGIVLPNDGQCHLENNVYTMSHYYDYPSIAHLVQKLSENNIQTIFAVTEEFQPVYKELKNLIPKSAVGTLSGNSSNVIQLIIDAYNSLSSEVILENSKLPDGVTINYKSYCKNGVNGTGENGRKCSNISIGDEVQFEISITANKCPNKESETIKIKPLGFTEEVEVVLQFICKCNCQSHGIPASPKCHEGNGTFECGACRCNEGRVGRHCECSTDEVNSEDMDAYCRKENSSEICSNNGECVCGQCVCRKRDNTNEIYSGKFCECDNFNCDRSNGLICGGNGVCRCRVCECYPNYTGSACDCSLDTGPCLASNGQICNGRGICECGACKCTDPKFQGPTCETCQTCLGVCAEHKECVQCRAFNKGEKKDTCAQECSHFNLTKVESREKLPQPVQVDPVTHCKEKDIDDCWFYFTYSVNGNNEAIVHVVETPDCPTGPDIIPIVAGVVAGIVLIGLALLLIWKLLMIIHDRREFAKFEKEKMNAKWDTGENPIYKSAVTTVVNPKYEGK
UniProt Q8VI36: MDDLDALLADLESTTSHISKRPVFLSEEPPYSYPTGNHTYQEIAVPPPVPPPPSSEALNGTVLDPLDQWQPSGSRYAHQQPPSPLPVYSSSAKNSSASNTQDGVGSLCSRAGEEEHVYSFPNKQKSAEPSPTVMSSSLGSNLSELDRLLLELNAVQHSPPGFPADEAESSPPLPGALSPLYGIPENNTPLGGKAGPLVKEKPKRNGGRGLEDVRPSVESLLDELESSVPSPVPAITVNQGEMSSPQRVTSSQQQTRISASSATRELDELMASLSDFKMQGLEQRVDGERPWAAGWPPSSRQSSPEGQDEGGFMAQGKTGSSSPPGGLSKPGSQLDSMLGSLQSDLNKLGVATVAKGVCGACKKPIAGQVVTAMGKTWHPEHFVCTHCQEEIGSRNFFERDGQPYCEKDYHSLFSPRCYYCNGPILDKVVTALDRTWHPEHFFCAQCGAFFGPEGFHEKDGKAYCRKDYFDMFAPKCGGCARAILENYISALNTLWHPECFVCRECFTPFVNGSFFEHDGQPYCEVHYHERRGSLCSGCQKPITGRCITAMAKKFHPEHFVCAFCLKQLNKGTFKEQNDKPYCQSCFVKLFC

Biological target: MYC-BioID2-RHOU (mouse) (UniProt Q9EQT3)
Experiment: proximity labelling; BioID2: MYC-BioID2 bait induced with 1 μg/ml doxycycline in Krt14-rtTA mouse keratinocytes in growth conditions (low calcium), 50 μM biotin for 16 hr; lysis in 50 mM Tris pH 7.4, 500 mM NaCl, 0.2% SDS, 1 mM DTT; streptavidin beads; mass spectrometry; a hit is found in 2 of 3 RHOU replicates and in none of the GFP samples

| Molecule | binding |
| --- | --- |
| EGFR (from UniProt Q01279 25-1210) (receptor) | binds |
| PAK2 (from UniProt Q8CIN4 1-524) (enzyme) | binds |
| integrin β1 (from UniProt P09055 21-798) (receptor) | binds |
| paxillin (from UniProt Q8VI36 1-591) | binds |
| B1 | binds |
| B2 | binds |
| B3 | binds |

From PMC6768663
